Screen size: about 400,000 compounds; about 13,000 (3.2%) were called active. Inconclusive means that the source gave no clear call. Such entries were picked first, then a sample of the others. The call rests on the fitted dose curve; in most records, active means well fitted cell-killing curve with a large enough effect; inconclusive means small, poorly fitted or top-dose-only effect, or effect the other way; inactive means flat fitted curve, though single readings scatter. Potencies beside an inconclusive call are fits to weak or partial responses and may not hold up.
assay: qHTS assay for MDR1-selective chemotherapeutics: Primary screen using the drug-selected MDR subline cells KB-V1; settings: KB-V1 MDR cells viability, CellTiter-Glo, 72 h; activity change, negative = cytotoxicity: at 46.1 µM (top of the series)
Description: A prime difficulty in effectively treating cancer is the development of cellular resistance to multiple structurally unrelated anticancer drugs, a phenomenon known as multidrug resistance (MDR). […] Numerous strategies to overcome P-gp-mediated MDR have been explored, including the design of drugs that evade recognition and efflux, and development of inhibitors to block efflux and restore drug accumulation. […] An alternative approach is to exploit resistance by identifying drugs that target MDR cells over the non-resistant parental cells from which they were selected. […] The development of MDR1-selective agents represents a new strategy for resolving multidrug resistance, as it remains a long-standing clinical challenge for cancer chemotherapy.
Our goal is to identify compounds that selectively kill P-gp-expressing MDR cells. We will identify MDR1-selective compounds by comparing toxicity of compounds in the screening library against parental, drug-naive (KB-3-1) adenocarcinoma cells as well as their drug-selected MDR sub-line (KB-V1). The differential toxicity of compounds against these two cell lines will be used to identify MDR1-selective compounds, whose cytotoxicity is potentiated, rather than diminished, by P-gp expression. This assay will be utilized to conduct a quantitative high-throughput screen (qHTS) in collaboration with the NIH Chemical Genomics Center to identify selective agents, and probe hits arising from the screen will be validated using secondary assays and characterized through a well-established follow-up research program. This screen was run against the entire NCGC library collection of about 400,000 compounds.
NIH Molecular Libraries Probe Production Network [MLPCN]
NIH Chemical Genomics Center [NCGC]
PI: Michael Gottesman, National Cancer Institute, NIH
Briefly, 5 microL of media containing either KB-V1 cells (columns 1-2, 4-48) are dispensed into Greiner white, treated solid-bottom 1536-well assay plates (media-only control is added to column 3). Compounds are then transferred via Kalypsys pin tool equipped with 1536-pin array (10 nL slotted pins, V&P Scientific, San Diego, CA). Following addition of compound, the plates are incubated at 37 degrees C for 72 hours. CellTiter-Glo (2.5 µL/well) is then added, and the plates are read in a ViewLux reader (Perkin-Elmer, clear luminescence filter, 1 second exposure, 1x binning) following a 10 minute incubation. All cells are dispensed in DMEM phenol-red free media containing 10% FBS.
Library plates were screened starting from the lowest and proceeding to the highest concentration. Vehicle-only plates, with DMSO being pin-transferred to columns 5-48, will be inserted uniformly at the beginning and the end of each library in order to monitor and record any shifts in the background, which can be affected by reagent dispensers or loss in enzyme activity over time. Screening data will be corrected, normalized, and concentration-effect relationships will be derived by using publicly-available NCGC, NCATS curve fitting algorithms (http://ncgc.nih.gov/pub/openhts).
On the % scale 0 is the no-effect control and ±100 the full control effect; potency means the concentration at half of the fitted maximal effect.

Row | Structure (SMILES) | Potency | activity change, negative = cytotoxicity
1 | CCc1c(C)[nH]c2ccc(OC)cc2c1=S | inconclusive: 18.4 µM [cytotoxic, single point] | 
2 | COc1cccc(-c2ccc3ncnc(NCc4cccc(C)c4)c3c2)c1 | inactive | 
3 | Clc1ccc(-c2nc3c4ccccc4ccn3c2Cc2ccsc2)cc1 |  | inconclusive: -35.6%
4 | COc1ccccc1CCC(=O)Nc1ccc(C)cc1Cl | inconclusive: 18.4 µM [cytotoxic, partial curve] | 
5 | CCOC(=O)C1CCCN(C(=O)c2ccc(C(=O)c3ccccc3)cc2)C1 (stereo unspecified) | inactive | 
6 | CCOC(=O)C1=C(C)NC(=S)N(C(C)=O)C1c1ccc(OC)c(OC)c1 (stereo unspecified) | inactive | 
7 | C/C(=N/NC(=O)Cc1cccn1C)c1ccccc1 | inactive | 
8 | COc1cc(NC(=O)c2ccc(-c3c(C)noc3C)c3ccoc23)cc(OC)c1OC | active: 5.8 µM | 
9 | O=C(COc1ccc(Cl)cc1)N/N=C/c1cccc2cccnc12 | inconclusive: 25.9 µM [cytotoxic, single point] | 
10 | CCOC(=O)c1cc(-c2ccc(OC(F)F)cc2)nc2c1c(=O)[nH]c(=O)n2C | inconclusive: 7.31 µM [cytotoxic, partial curve, poor fit] | 
11 | CCn1c(CNc2nc3ccccc3n2C(C)C)nc2ccccc21 | active: 11.6 µM | 
12 | O=C(Oc1ccccc1)c1cc2ccccc2o1 | inconclusive: 20.6 µM [rising, partial curve] | 
13 | CCN(c1ccccc1)S(=O)(=O)c1cccc(C(=O)NCc2ccccn2)c1 | inconclusive: 23.1 µM [cytotoxic, single point] | 
14 | C=Cc1ccc(Cn2c(C)c(C(=O)NCc3ccc(C#N)cc3)sc2=O)cc1 | active: 18.4 µM | 
15 | Cc1c(C(=O)NCc2ccc3c(c2)OCO3)sc(=O)n1Cc1ccc(S(C)(=O)=O)cc1 | inconclusive: 16.4 µM [cytotoxic, partial curve] | 
16 | CC1CCN(CCCNC(=O)CCc2nnc3n(CCc4ccccc4)c(=O)c4ccccc4n23)CC1 | inconclusive: 29.1 µM [rising, single point] | 
17 | COc1cccc(/C=N/NC(=O)C(=O)NCc2cccnc2)c1O | inconclusive: 4.61 µM [cytotoxic, partial curve] | 
18 | CC(C)N(CCCNC(=O)c1nn(C)c2c1CS(=O)(=O)c1ccccc1-2)Cc1ccccc1 | inactive | 
19 | Cc1cccc(C)c1Nc1c(-c2ccc(O)cc2)nc2sccn12 | inactive | 
20 | O=c1oc2ccccc2cc1-c1cn2cc(Cc3ccc(Br)cc3)sc2n1 | inactive | 
21 | CCN(CC)CCN(C)C1CCC(c2ccccc2)CC1 (stereo unspecified) | inconclusive: 8.2 µM [cytotoxic, partial curve, poor fit] | 
22 | CCc1ccc(/C=C2/SC(=S)N(CCCC(=O)Nc3ccccc3C(=O)O)C2=O)cc1 | inconclusive: 5.8 µM [rising, full curve, poor fit] | 
23 | CCn1c(SCC(=O)Nc2cccc(OC)c2)nnc1-c1ccc(Cl)cc1 | active: 11.6 µM | 
24 | CN1c2ccccc2C(C)(C)C12CC(c1cccc(S(=O)(=O)N3CCCC3)c1)=NO2 (stereo unspecified) | active: 6.51 µM | 
25 | Cc1ccc(-c2noc(CSc3nnc(-c4cccs4)n3C)n2)cc1 | active: 13 µM | 
26 | COc1cccc(-c2ccc(SCC(=O)c3ccccc3)nn2)c1 | inconclusive: 29.1 µM [cytotoxic, single point] | 

Row | Structure (SMILES) | Potency | activity change, negative = cytotoxicity
27 | O=C(Nc1ccccc1)C1Cc2c(-c3ccc(Cl)cc3)ccnc2O1 (stereo unspecified) | inconclusive: 20.6 µM [cytotoxic, single point] | 
28 | COc1cc(C(=O)N2CCCc3ccccc32)cc(OC)c1OC | inconclusive: 18.4 µM [cytotoxic, single point] | 
29 | N#Cc1cc(-c2ccccc2)nnc1Sc1ccccc1 | inconclusive: 29.1 µM [rising, single point] | 
30 | Cc1ccc(/C=N/NC(=O)NC2CCCCC2)o1 | inactive | 
31 | COc1ccccc1NC(=S)c1ccccc1 | inactive | 
32 | Cc1ccc2nc(-c3cccnc3)c(NC3CCCC3)n2c1 | active: 2.59 µM | 
33 | COc1ccc(C)cc1S(=O)(=O)N(CC(=O)N1CCOCC1)c1cc(C)cc(C)c1 | inconclusive: 29.1 µM [cytotoxic, single point] | 
34 | CNc1cc([N+](=O)[O-])ccc1OCc1ccccc1 | inactive | 
35 | COc1ccc(-n2c3c(cc(C(=O)NCc4ccco4)c2=O)C(=O)CC(C)(C)C3)cc1 | inconclusive: 16.4 µM [cytotoxic, partial curve, poor fit] | 
36 | Cc1ccc(-c2cn(-c3ccc(Cl)cc3)c(S(=O)(=O)CC(=O)Nc3ccccc3)n2)cc1 | inconclusive: 18.4 µM [cytotoxic, single point] | 
37 | O=C(COC(=O)c1ccccc1Cl)Nc1cccnc1Cl | inconclusive: 29.1 µM [rising, single point] | 
38 | Cc1ccc(N2C(=O)c3ccc(C(=O)N4CCN(c5cccc(C)c5C)CC4)cc3C2=O)cc1 |  | inconclusive: 31.8%
39 | O=C(COc1ccc(C(=O)c2ccccc2)cc1)NCc1ccc(F)cc1 | inconclusive: 0.517 µM [cytotoxic, full curve, poor fit] | 
40 | CCSC(=Nc1ccccc1)N1CCOCC1 | inactive | 
41 | O=C(NCCc1ccc(Cl)cc1)c1ccc2c(c1)OCCO2 | inactive | 
42 | CCOc1ccc(OCC)c(NC(=O)CSc2nnc(Cn3cnc4ccccc43)n2C)c1 | inconclusive: 20.6 µM [cytotoxic, single point] | 
43 | O=C(CC(O)(c1ccccc1)c1ccccc1)Nc1ccccn1 | active: 14.6 µM | 
44 | CCOc1ccc2oc(C(=O)N3CCN(c4ccccn4)CC3)c(C)c2c1 | inconclusive: 20.6 µM [cytotoxic, single point] | 
45 | CCCn1c2ccccc2c2cnn(CC(=O)NCCc3ccc(C)cc3)c(=O)c21 | inactive | 
46 | COc1ccc(-c2oc3c(c2C(=O)OCCO)C(OCCO)CCC3)cc1 (stereo unspecified) | inconclusive: 18.4 µM [cytotoxic, partial curve, poor fit] | 
47 | O=C(Nc1ccc2c(c1)OCO2)C1CCCN(S(=O)(=O)c2cccs2)C1 (stereo unspecified) | inactive | 
48 | NC(=S)N=Nc1ccc(NN=C(N)N)cc1 | inconclusive: 13 µM [cytotoxic, partial curve] | 
49 | CC(Oc1ccccc1F)C(=O)NNC(=O)C1CC(=O)N(c2ccc3c(c2)OCCO3)C1 (stereo unspecified) | inactive | 
50 | CC(=O)Oc1cccc(N2C(=O)C3CC=CCC3C2=O)c1 (stereo unspecified) | inconclusive: 25.9 µM [rising, partial curve, poor fit] | 
51 | CC1CCN(C(=O)COC(=O)c2nn(C)c(=O)c3ccccc23)CC1 | inconclusive: 10.3 µM [rising, partial curve, poor fit] | 
52 | COCCN(C(=O)CCc1nnc(Cc2c[nH]c3ccccc23)o1)C(C)C | inactive | 

Structural class: the entries above containing a cyano group (two)
Row | Structure (SMILES) | Potency | activity change, negative = cytotoxicity
14 | C=Cc1ccc(Cn2c(C)c(C(=O)NCc3ccc(C#N)cc3)sc2=O)cc1 | active: 18.4 µM | 
29 | N#Cc1cc(-c2ccccc2)nnc1Sc1ccccc1 | inconclusive: 29.1 µM [rising, single point] | 

Following part:

Row | Structure (SMILES) | Potency | activity change, negative = cytotoxicity
53 | CCOc1ccc(S(=O)(=O)Nc2cc(Cl)ccc2OC)c2cccnc12 |  | inconclusive: 0.331%
54 | Cc1cc(C)n(Cc2ccc(C(=O)N/N=C/c3ccc(-c4ccc([N+](=O)[O-])cc4)o3)o2)n1 | inactive | 
55 | CC1Cn2c(nc3sc4c(c3c2=O)CC(C)(C)OC4)N1CCO (stereo unspecified) | inactive | 
56 | O=C(CSCc1ccc(F)cc1)Nc1nc2c(s1)CCCC2 | inconclusive: 23.1 µM [cytotoxic, single point] | 
57 | COc1ccccc1-c1cc(C(=O)NC(C)c2ccccc2)no1 (stereo unspecified) | active: 20.6 µM | 
58 | O=C(Nc1nc2ccccc2s1)c1ccc([N+](=O)[O-])o1 | inconclusive: 29.1 µM [cytotoxic, single point] | 
59 | Cc1cc(C)c2oc(C(=O)Nc3ccc(S(=O)(=O)Nc4nccc(C)n4)cc3)cc(=O)c2c1 |  | inconclusive: 0%
60 | CC1Cc2ccccc2N1C(=O)CSc1nnc2sc3ccccc3n12 (stereo unspecified) | inconclusive: 14.6 µM [cytotoxic, single point] | 
61 | COc1ccc(-c2oc3cccnc3c2C#CCO)cc1 | inactive | 
62 | Cc1ccc(C)c2[nH]c(=O)c(C(c3nnnn3Cc3ccccc3)N3CCc4ccccc4C3)cc12 (stereo unspecified) | inconclusive: 8.2 µM [cytotoxic, partial curve, poor fit] | 
63 | CCc1nn(CC(=O)NCCCOC)c(=O)c2cc3ccccc3n12 | inactive | 
64 | CC(C)NC(=O)c1cc(C2CCCCN2S(=O)(=O)c2ccc(F)cc2F)on1 (stereo unspecified) | inactive | 
65 | COc1cc(C2C(C(C)=O)=C(O)C(=O)N2c2ccc(Br)cn2)ccc1O (stereo unspecified) | inactive | 
66 | Cc1ccc(CN2CCCn3nc(C(=O)NCC(C)c4ccccc4)cc3C2=O)cc1 (stereo unspecified) | inactive | 
67 | N#Cc1ccc(OCC(O)CN2CCN(c3ncc(C(F)(F)F)cc3Cl)CC2)cc1 (stereo unspecified) | active: 7.31 µM | 
68 | COc1ccc(Nc2oc(/C=C/c3ccc(OC)c(OC)c3)nc2C#N)cc1 | inactive | 
69 | CCCc1[nH]nc2c1C(c1cc(OC)ccc1F)C(C#N)=C(N)O2 (stereo unspecified) | inconclusive: 25.9 µM [rising, partial curve, poor fit] | 
70 | O=C(Nc1ccc(NC(=O)c2ccccc2F)cn1)c1ccco1 | inconclusive: 14.6 µM [cytotoxic, single point] | 
71 | O=C(Nc1ccc(F)c(Cl)c1)NC1CC1 | inconclusive: 0.651 µM [cytotoxic, partial curve, poor fit] | 
72 | CCOc1ccc(C(=O)NC(=S)Nc2cccc(S(=O)(=O)NC3=NCCC3)c2)cc1 | active: 7.31 µM | 
73 | COC(=O)c1c(NC(=O)C2(C)Cc3ccccc3C(=O)O2)sc2c1CCCC2 (stereo unspecified) | inconclusive: 13 µM [cytotoxic, partial curve, poor fit] | 
74 | O=C(Nc1cccc(S(=O)(=O)N2CCCC2)c1)c1ccc(Cl)nc1 | inconclusive: 32.6 µM [cytotoxic, single point] | 
75 | CCCCn1c(=S)[nH]c2cc(S(=O)(=O)N3CCOCC3)ccc21 | inactive | 
76 | COc1ccc(C=O)cc1Cn1ccnc1 |  | inconclusive: -30.4% [cytotoxic]

Reference: PubChem BioAssay AID1347076 (National Center for Advancing Translational Sciences (NCATS), 2019)
